According to article PMC11005723, “Development of Complementary Photo‐arginine/lysine to Promote Discovery of Arg/Lys hPTMs Interactomes” (Advanced Science, 2024):
This continues a long series; more values of the same kind are listed elsewhere.

System: HEK293T nuclear lysates
Test: SILAC‐based pull‐down proteomics H4K5me1/H4K5 (probes 6/5)
Format: binding, human

probe 6: H4K5me peptide probe with photo‐arginine R(dz) and K(biotin) (SGRGKGGKGLGKGGK; photo-arginine R(dz) at 3; monomethyl-lysine at 5; K(biotin) at 15)
C6 log (H4K5me/H4K5) (protein IWS1 (Q96ST2), run C6): -0.1301 | B6 log2 (H4K5me/H4K5) (protein K7EJT5 RPL22, run B6): 0.5097 | C6 log (H4K5me/H4K5) (protein K7EJT5 RPL22, run C6): 0.5097 | B6 log2 (H4K5me/H4K5) (protein K7EQ02 DAZAP1, run B6): 0.1345 | C6 log (H4K5me/H4K5) (protein K7EQ02 DAZAP1, run C6): 0.26 | B6 log2 (H4K5me/H4K5) (protein KDM1A (O60341), SILAC run B6): -0.2655 | C6 log (H4K5me/H4K5) (protein KDM1A (O60341), SILAC run C6): -0.2397 | B6 log2 (H4K5me/H4K5) (protein KHDRBS1 (Q07666), run B6): 0.02395 | C6 log (H4K5me/H4K5) (protein KHDRBS1 (Q07666), run C6): 0.003289 | B6 log2 (H4K5me/H4K5) (protein KHSRP (Q92945), run B6): 0.03286 | C6 log (H4K5me/H4K5) (protein KHSRP (Q92945), run C6): 0.1014 | B6 log2 (H4K5me/H4K5) (protein KIF4A (O95239), run B6): 0.09799 | C6 log (H4K5me/H4K5) (protein KIF4A (O95239), run C6): 0.09778 | B6 log2 (H4K5me/H4K5) (protein KIF22 (Q14807), SILAC run B6): -0.2292 | C6 log (H4K5me/H4K5) (protein KIF22 (Q14807), SILAC run C6): -0.1278 | B6 log2 (H4K5me/H4K5) (protein KIF23 (A0A2U3TZL8), run B6): 0.05551 | C6 log (H4K5me/H4K5) (protein KIF23 (A0A2U3TZL8), run C6): -0.1065 | B6 log2 (H4K5me/H4K5) (protein KPNA2 (P52292), run B6): 0.008279 | C6 log (H4K5me/H4K5) (protein KPNA2 (P52292), run C6): 0.08085 | B6 log2 (H4K5me/H4K5) (protein KPNA3 (O00505), SILAC run B6): -0.4637 | C6 log (H4K5me/H4K5) (protein KPNA3 (O00505), SILAC run C6): -0.3989 | B6 log2 (H4K5me/H4K5) (protein KPNB1 (Q14974), run B6): 0.05385 | C6 log (H4K5me/H4K5) (protein KPNB1 (Q14974), run C6): -0.005795 | B6 log2 (H4K5me/H4K5) (protein LRWD1 (Q9UFC0), SILAC run B6): -0.2394 | C6 log (H4K5me/H4K5) (protein LRWD1 (Q9UFC0), SILAC run C6): 0.1828 | B6 log2 (H4K5me/H4K5) (protein LUC7L3 (O95232), run B6): 0.1009 | C6 log (H4K5me/H4K5) (protein LUC7L3 (O95232), run C6): 0.08224 | B6 log2 (H4K5me/H4K5) (protein M0R366 FSD1, run B6): 0.5243 | C6 log (H4K5me/H4K5) (protein M0R366 FSD1, run C6): 0.5243 | B6 log2 (H4K5me/H4K5) (protein MATR3 (P43243), run B6): 0.01535 | C6 log (H4K5me/H4K5) (protein MATR3 (P43243), run C6): 0.06347 | B6 log2 (H4K5me/H4K5) (protein MAX (P61244), run B6): 0.0467 | C6 log (H4K5me/H4K5) (protein MAX (P61244), run C6): 0.04821 | B6 log2 (H4K5me/H4K5) (protein MCM2 (P49736), run B6): -0.008591 | C6 log (H4K5me/H4K5) (protein MCM2 (P49736), run C6): -0.03615 | B6 log2 (H4K5me/H4K5) (protein MCM3 (P25205), run B6): 0.09487 | C6 log (H4K5me/H4K5) (protein MCM3 (P25205), run C6): 0.04565 | B6 log2 (H4K5me/H4K5) (protein MCM4 (A0A3B3IU45), run B6): 0.002224 | C6 log (H4K5me/H4K5) (protein MCM4 (A0A3B3IU45), run C6): 0.007898 | B6 log2 (H4K5me/H4K5) (protein MCM5 (P33992), run B6): 0.007776 | C6 log (H4K5me/H4K5) (protein MCM5 (P33992), run C6): 0.01159 | B6 log2 (H4K5me/H4K5) (protein MCM7 (P33993), run B6): 0.108 | C6 log (H4K5me/H4K5) (protein MCM7 (P33993), run C6): 0.07892 | B6 log2 (H4K5me/H4K5) (protein MDC1 (Q14676), SILAC run B6): -0.2625 | C6 log (H4K5me/H4K5) (protein MDC1 (Q14676), SILAC run C6): -0.2425 | B6 log2 (H4K5me/H4K5) (protein MIF (P14174), run B6): -0.000255 | C6 log (H4K5me/H4K5) (protein MIF (P14174), run C6): -0.01982 | B6 log2 (H4K5me/H4K5) (protein MINA (Q8IUF8), SILAC run B6): -0.2702 | C6 log (H4K5me/H4K5) (protein MINA (Q8IUF8), SILAC run C6): -0.1372 | B6 log2 (H4K5me/H4K5) (protein MKI67 (P46013), run B6): 0.02037 | C6 log (H4K5me/H4K5) (protein MKI67 (P46013), run C6): 0.05713 | B6 log2 (H4K5me/H4K5) (protein MLLT1 (Q03111), run B6): 0.003242 | C6 log (H4K5me/H4K5) (protein MLLT1 (Q03111), run C6): 0.1369 | B6 log2 (H4K5me/H4K5) (protein MRPL39 (C9JG87), run B6): 0.01098 | C6 log (H4K5me/H4K5) (protein MRPL39 (C9JG87), run C6): 0.3616 | B6 log2 (H4K5me/H4K5) (protein MSH6 (P52701), run B6): 0.09571 | C6 log (H4K5me/H4K5) (protein MSH6 (P52701), run C6): 0.1425 | B6 log2 (H4K5me/H4K5) (protein MST4 (Q8NBY1), run B6): -0.02054 | C6 log (H4K5me/H4K5) (protein MST4 (Q8NBY1), run C6): -0.08653 | B6 log2 (H4K5me/H4K5) (protein MTA3 (E7EQY4), SILAC run B6): -0.2142 | C6 log (H4K5me/H4K5) (protein MTA3 (E7EQY4), SILAC run C6): -0.2184 | B6 log2 (H4K5me/H4K5) (protein MYL12A (P19105), run B6): 0.06852 | C6 log (H4K5me/H4K5) (protein MYL12A (P19105), run C6): -0.04364 | B6 log2 (H4K5me/H4K5) (protein NAA30 (Q147X3), SILAC run B6): -0.3436 | C6 log (H4K5me/H4K5) (protein NAA30 (Q147X3), SILAC run C6): -0.2425 | B6 log2 (H4K5me/H4K5) (protein NACA (F8W1N5), run B6): 0.00233 | C6 log (H4K5me/H4K5) (protein NACA (F8W1N5), run C6): 0.07334 | B6 log2 (H4K5me/H4K5) (protein NAP1L1 (F8VY35), SILAC run B6): -0.4826 | C6 log (H4K5me/H4K5) (protein NAP1L1 (F8VY35), SILAC run C6): -0.1556 | B6 log2 (H4K5me/H4K5) (protein NARS (O43776), run B6): -0.008764 | C6 log (H4K5me/H4K5) (protein NARS (O43776), run C6): -0.04829 | B6 log2 (H4K5me/H4K5) (protein NASP (P49321), run B6): -0.007075 | C6 log (H4K5me/H4K5) (protein NASP (P49321), run C6): 0.1001 | B6 log2 (H4K5me/H4K5) (protein NHP2 (D6RC52), SILAC run B6): -0.4318 | C6 log (H4K5me/H4K5) (protein NHP2 (D6RC52), SILAC run C6): -0.2745 | B6 log2 (H4K5me/H4K5) (protein NKRF (O15226), run B6): 0.03396 | C6 log (H4K5me/H4K5) (protein NKRF (O15226), run C6): 0.05617 | B6 log2 (H4K5me/H4K5) (protein NONO (Q15233), run B6): 0.1133 | C6 log (H4K5me/H4K5) (protein NONO (Q15233), run C6): -0.03087 | B6 log2 (H4K5me/H4K5) (protein NOP2 (P46087), run B6): 0.08704 | C6 log (H4K5me/H4K5) (protein NOP2 (P46087), run C6): -0.06309 | B6 log2 (H4K5me/H4K5) (protein NOP58 (Q9Y2X3), run B6): 0.08928 | C6 log (H4K5me/H4K5) (protein NOP58 (Q9Y2X3), run C6): 0.1146 | B6 log2 (H4K5me/H4K5) (protein NPEPPS (E9PLK3), SILAC run B6): -0.4695 | C6 log (H4K5me/H4K5) (protein NPEPPS (E9PLK3), SILAC run C6): -0.1673 | B6 log2 (H4K5me/H4K5) (protein NRF1 (Q16656), SILAC run B6): -0.3128 | C6 log (H4K5me/H4K5) (protein NRF1 (Q16656), SILAC run C6): 0.005664 | B6 log2 (H4K5me/H4K5) (protein NUCKS1 (Q9H1E3), SILAC run B6): -0.358 | C6 log (H4K5me/H4K5) (protein NUCKS1 (Q9H1E3), SILAC run C6): 0.05851 | B6 log2 (H4K5me/H4K5) (protein NUP50 (Q9UKX7), SILAC run B6): -0.4605 | C6 log (H4K5me/H4K5) (protein NUP50 (Q9UKX7), SILAC run C6): -0.7522 | B6 log2 (H4K5me/H4K5) (protein NUP155 (E9PF10), run B6): 0.07566 | C6 log (H4K5me/H4K5) (protein NUP155 (E9PF10), run C6): -0.7649 | B6 log2 (H4K5me/H4K5) (protein O00148 DDX39A, run B6): 0.27 | C6 log (H4K5me/H4K5) (protein O00148 DDX39A, run C6): 0.3231 | B6 log2 (H4K5me/H4K5) (protein O14654 IRS4, run B6): 0.1263 | C6 log (H4K5me/H4K5) (protein O14654 IRS4, run C6): -0.4253 | B6 log2 (H4K5me/H4K5) (protein O43913 ORC5, run B6): 0.3319 | C6 log (H4K5me/H4K5) (protein O43913 ORC5, run C6): -0.06246 | B6 log2 (H4K5me/H4K5) (protein O75643 SNRNP200, run B6): 0.3604 | C6 log (H4K5me/H4K5) (protein O75643 SNRNP200, run C6): 0.09513 | B6 log2 (H4K5me/H4K5) (protein P02545 LMNA, run B6): 0.2721 | C6 log (H4K5me/H4K5) (protein P02545 LMNA, run C6): 0.02171 | B6 log2 (H4K5me/H4K5) (protein P12277 CKB, run B6): 0.5555 | C6 log (H4K5me/H4K5) (protein P12277 CKB, run C6): 0.5555 | B6 log2 (H4K5me/H4K5) (protein P23526 AHCY, run B6): 0.2772 | C6 log (H4K5me/H4K5) (protein P23526 AHCY, run C6): -0.08509 | B6 log2 (H4K5me/H4K5) (protein P24468 NR2F2, run B6): 0.1201 | C6 log (H4K5me/H4K5) (protein P24468 NR2F2, run C6): 0.3564 | B6 log2 (H4K5me/H4K5) (protein P26639 TARS, run B6): 0.298 | C6 log (H4K5me/H4K5) (protein P26639 TARS, run C6): 0.01983 | B6 log2 (H4K5me/H4K5) (protein P30153 PPP2R1A, run B6): 0.456 | C6 log (H4K5me/H4K5) (protein P30153 PPP2R1A, run C6): 0.089
